Results of single-concentration screens

By UniProt entry, the sequences of proteins in these tests, tags left out. Residues count along the entry.
UniProt P9WNZ1, whole entry: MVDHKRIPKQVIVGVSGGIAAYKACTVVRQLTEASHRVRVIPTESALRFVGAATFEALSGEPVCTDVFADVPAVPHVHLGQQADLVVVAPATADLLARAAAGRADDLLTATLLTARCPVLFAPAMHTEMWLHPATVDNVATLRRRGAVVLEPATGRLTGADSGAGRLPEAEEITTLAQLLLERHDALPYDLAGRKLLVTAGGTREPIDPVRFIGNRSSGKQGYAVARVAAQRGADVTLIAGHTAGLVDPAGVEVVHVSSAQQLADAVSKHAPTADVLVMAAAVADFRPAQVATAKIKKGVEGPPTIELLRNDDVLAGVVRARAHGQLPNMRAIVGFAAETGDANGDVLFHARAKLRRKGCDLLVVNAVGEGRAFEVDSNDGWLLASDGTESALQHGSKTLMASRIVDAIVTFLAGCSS
UniProt I6X8D2, whole entry: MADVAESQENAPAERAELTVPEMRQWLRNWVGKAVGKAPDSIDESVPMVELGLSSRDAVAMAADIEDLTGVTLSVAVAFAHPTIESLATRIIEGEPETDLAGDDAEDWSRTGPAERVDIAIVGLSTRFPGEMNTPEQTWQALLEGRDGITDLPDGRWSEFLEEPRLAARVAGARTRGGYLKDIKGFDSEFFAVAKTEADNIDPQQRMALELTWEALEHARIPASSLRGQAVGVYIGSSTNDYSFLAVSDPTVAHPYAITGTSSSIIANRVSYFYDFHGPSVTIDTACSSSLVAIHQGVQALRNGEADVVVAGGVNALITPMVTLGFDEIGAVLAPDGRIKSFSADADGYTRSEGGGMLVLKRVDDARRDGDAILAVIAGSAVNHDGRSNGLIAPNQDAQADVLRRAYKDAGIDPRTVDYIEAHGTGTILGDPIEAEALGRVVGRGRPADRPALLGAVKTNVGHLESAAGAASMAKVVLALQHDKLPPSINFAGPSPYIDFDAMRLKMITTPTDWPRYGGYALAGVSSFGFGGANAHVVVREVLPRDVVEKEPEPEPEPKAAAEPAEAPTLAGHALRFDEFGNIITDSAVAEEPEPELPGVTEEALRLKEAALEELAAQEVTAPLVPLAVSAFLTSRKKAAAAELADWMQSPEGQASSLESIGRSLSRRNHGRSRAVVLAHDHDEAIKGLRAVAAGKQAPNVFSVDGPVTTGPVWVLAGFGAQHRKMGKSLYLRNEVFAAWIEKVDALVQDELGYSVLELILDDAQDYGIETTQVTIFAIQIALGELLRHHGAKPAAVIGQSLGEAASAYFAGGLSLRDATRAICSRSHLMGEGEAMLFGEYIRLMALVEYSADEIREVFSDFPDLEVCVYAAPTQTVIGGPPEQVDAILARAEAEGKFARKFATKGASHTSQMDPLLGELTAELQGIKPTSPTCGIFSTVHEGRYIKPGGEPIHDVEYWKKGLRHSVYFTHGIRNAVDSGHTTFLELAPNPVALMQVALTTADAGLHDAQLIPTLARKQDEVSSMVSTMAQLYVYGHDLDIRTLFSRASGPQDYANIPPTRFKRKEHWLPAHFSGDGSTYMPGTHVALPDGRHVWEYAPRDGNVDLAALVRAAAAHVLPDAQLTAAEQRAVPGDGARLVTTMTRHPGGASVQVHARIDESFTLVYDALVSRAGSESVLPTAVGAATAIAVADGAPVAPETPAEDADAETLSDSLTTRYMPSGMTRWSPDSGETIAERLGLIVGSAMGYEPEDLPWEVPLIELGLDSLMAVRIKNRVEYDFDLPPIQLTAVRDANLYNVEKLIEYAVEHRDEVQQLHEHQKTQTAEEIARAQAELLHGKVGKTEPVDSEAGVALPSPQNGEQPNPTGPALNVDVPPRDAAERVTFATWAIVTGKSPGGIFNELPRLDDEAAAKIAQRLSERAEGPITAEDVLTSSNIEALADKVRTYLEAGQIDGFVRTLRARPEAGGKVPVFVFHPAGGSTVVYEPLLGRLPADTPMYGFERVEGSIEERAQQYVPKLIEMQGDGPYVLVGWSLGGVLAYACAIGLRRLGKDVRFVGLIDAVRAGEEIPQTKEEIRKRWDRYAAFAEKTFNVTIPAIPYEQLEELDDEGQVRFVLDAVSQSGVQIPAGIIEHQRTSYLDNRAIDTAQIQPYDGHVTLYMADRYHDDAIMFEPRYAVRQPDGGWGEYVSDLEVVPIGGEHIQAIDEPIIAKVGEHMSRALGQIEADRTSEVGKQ
UniProt P9WFT3, whole entry: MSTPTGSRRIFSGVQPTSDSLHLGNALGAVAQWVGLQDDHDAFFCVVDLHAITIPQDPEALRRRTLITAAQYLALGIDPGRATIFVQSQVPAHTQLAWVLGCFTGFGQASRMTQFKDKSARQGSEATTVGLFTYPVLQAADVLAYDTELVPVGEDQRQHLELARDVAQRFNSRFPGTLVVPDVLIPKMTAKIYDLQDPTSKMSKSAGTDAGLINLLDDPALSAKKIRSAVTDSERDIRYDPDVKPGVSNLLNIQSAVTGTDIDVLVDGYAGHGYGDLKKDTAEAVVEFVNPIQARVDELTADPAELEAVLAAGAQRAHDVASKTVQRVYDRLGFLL
UniProt A4I591, 1-473: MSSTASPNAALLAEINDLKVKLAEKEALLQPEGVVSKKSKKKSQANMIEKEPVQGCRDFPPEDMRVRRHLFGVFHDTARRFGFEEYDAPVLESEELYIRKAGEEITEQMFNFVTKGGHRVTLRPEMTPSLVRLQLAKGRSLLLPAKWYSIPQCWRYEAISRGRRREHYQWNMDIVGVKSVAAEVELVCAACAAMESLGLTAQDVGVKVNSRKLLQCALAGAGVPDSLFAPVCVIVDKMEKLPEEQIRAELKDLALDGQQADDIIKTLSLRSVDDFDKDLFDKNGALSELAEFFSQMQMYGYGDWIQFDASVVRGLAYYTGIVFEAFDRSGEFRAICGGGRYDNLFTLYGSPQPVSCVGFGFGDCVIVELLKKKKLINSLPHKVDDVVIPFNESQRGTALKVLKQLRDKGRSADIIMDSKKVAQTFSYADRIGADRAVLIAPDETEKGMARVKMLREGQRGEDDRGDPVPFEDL

Source: ChEMBL document CHEMBL3988442, “University of Dundee, Small-Polar-MMV Screening Library” (2021).

CoaBC: 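Enzyme assay of CoaBC with a phosphate dye (Biomol Green) read at 650 nm. Target: Coenzyme A biosynthesis protein CoaBC, Mycobacterium tuberculosis (UniProt P9WNZ1). Compounds at 30 µM. Higher reads as stronger inhibition, judged from the few compounds that gave an IC50. Most strong results did not repeat in a second test. About 67,000 compounds were tested under these conditions; 0.06% (about 40) showed 50% or more at least once.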
Pks13 thioesterase: 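Polyketide synthase Pks13, Mycobacterium tuberculosis (UniProt I6X8D2). Enzyme assay of the thioesterase domain of polyketide synthase 13; the read-out is not stated. Tested at 30 µM. Higher reads as stronger inhibition (inferred from which compounds were picked for retests). Of about 67,000 compounds tested this way, about 300 (0.46%) reached 50% or more in at least one test.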
MtTrpRS: 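Enzyme assay of tryptophanyl-tRNA synthetase; the read-out is not stated. Target: Tryptophan-tRNA ligase, Mycobacterium tuberculosis (UniProt P9WFT3). Tested at 10 µM. Direction is not recorded; retested compounds ran higher, which suggests that high means inhibition. Size under these conditions: about 65,000 compounds, about 64 of them at 50% or above in at least one test.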
LiHisRS: 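Histidine-tRNA ligase, Leishmania infantum (UniProt A4I591). Enzyme assay of histidyl-tRNA synthetase; the read-out is not stated. Concentration: 30 µM. Direction is inferred from retests: higher values go with stronger inhibition. The assay is labelled LdHisRS but filed under L. infantum. Of about 69,000 compounds tested this way, about 410 (0.6%) reached 50% or more in at least one test.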

Results are given as percent effect.
How 0% and 100% were set is not recorded. Most values in the screen are low, and negative values occur.
Compounds were drawn at random from those tested, without regard to their results.

* FC(F)(F)c1ccc(-n2ccnc2-c2cc3n(n2)CCNC3)cn1 | CoaBC: 5.769%; Pks13 thioesterase: -30.72%; MtTrpRS: 4.11%; LiHisRS: 20.83%
* NS(=O)(=O)CCN(CCc1cccc(F)c1)C1CCCC1 | CoaBC: 4.463%; Pks13 thioesterase: 18.37%; MtTrpRS: -1.909%; LiHisRS: 10.2%
* COC(=O)c1ccc(C(=O)NCc2ccco2)nc1 | CoaBC: 6.994%; Pks13 thioesterase: 15.36%; MtTrpRS: -0.2467%; LiHisRS: 7.843%
* Cc1ccccc1CN1CCC(CNC(=O)Cn2cncn2)CC1 | CoaBC: 1.98%; Pks13 thioesterase: -1.125%; MtTrpRS: -1.037%; LiHisRS: -6%
* COc1ccc(CN(C)[C@@H]2CN(C(=O)c3cnn(C)c3)C[C@H]2O)cc1 | CoaBC: 0.7353%; Pks13 thioesterase: -10.45%; LiHisRS: 7.292%
* Cc1noc(COCC(=O)Nc2ncccc2Br)n1 | CoaBC: 4.519%; Pks13 thioesterase: -1.916%; MtTrpRS: -0.9336%; LiHisRS: 4.386%
* CC(C)CN1C[C@@H]2CN(S(=O)(=O)c3cccs3)C[C@@H]2C1=O | CoaBC: 10.69%; Pks13 thioesterase: -37%; MtTrpRS: -4.77%; LiHisRS: 13.59%
* Cc1cc(C)c(C#N)c(NCCSc2nncn2C)n1 | CoaBC: 4.531%; Pks13 thioesterase: 4.474%; MtTrpRS: 9.387%; LiHisRS: 10.59%
* CNC(=O)CCCNCc1c(C(C)C)nn(C)c1N(C)C | CoaBC: 0.1669%; Pks13 thioesterase: 2.185%; MtTrpRS: -2.047%; LiHisRS: -4.545%
* Cc1cc(CN[C@@H](C)C(N)=O)c(C)s1 | CoaBC: 8.974%; Pks13 thioesterase: -35.82%; MtTrpRS: -6.353%; LiHisRS: 15.38%
* CC(=O)NCCCC(=O)N1CCC(Sc2cccc(C)c2)CC1 | CoaBC: 2.795%; Pks13 thioesterase: -0.2361%; MtTrpRS: 1.125%; LiHisRS: 17.39%
* Cc1cnc(CN(C)C2CCN(Cc3nc4ccccc4o3)C2)o1 (centres undefined) | CoaBC: -2.089%; Pks13 thioesterase: -3.772%; MtTrpRS: 3.874%; LiHisRS: 18.97%
* CN(Cc1cn2c(n1)CN(CC1CCOC1)CC2)Cc1ccco1 (centres undefined) | CoaBC: 0.1236%; Pks13 thioesterase: -2.362%; MtTrpRS: -0.834%; LiHisRS: 15%
* CC(C)N(Cc1ccccn1)C(=O)CCC(=O)c1ccccc1 | CoaBC: 3.694%; Pks13 thioesterase: -15.59%; MtTrpRS: -5.01%; LiHisRS: 7.254%
* Cc1ccsc1C(=O)NCc1ccnc(N2CCN(C)CC2)c1 | CoaBC: 5.115%; Pks13 thioesterase: -22.39%; MtTrpRS: 8.736%; LiHisRS: 11.01%
* CN(C)c1ncc(I)c(C2CCCN2C)n1 (centres undefined) | CoaBC: 3.155%; Pks13 thioesterase: 1.433%; MtTrpRS: 0.2114%; LiHisRS: 11.43%
* CN(C)c1cccc(C(=O)Nc2cnn(CC(N)=O)c2)c1 | CoaBC: 0.86%; Pks13 thioesterase: -15.91%; MtTrpRS: -0.4105%; LiHisRS: 15.5%
* COc1ccccc1OCCNC(=O)NCC(C)C | CoaBC: -1.98%; Pks13 thioesterase: -0.8419%; MtTrpRS: -1.176%; LiHisRS: 10%
* CN1CC(c2ccccc2)CC12CCN(C(=O)c1c(Cl)cnn1C)CC2 (centres undefined) | CoaBC: 1.754%; Pks13 thioesterase: -5.597%; MtTrpRS: -2.924%; LiHisRS: 19.05%
* Cc1nn(C)c(C)c1CN(CCO)C(=O)C1COc2ccccc2C1 (centres undefined) | CoaBC: 10.68%; Pks13 thioesterase: -3.066%; MtTrpRS: 26.91%; LiHisRS: 15.38%
* O=C(NCCNC1CCCCC1)c1cccs1 | CoaBC: -1.854%; Pks13 thioesterase: 0.5525%; MtTrpRS: -5.49%; LiHisRS: 3.448%
* CCC1=N[C@@]2(CC[C@@H]3CN(C(=O)Nc4ccccc4)C[C@@H]32)C(=O)N1C | CoaBC: 4.481%; Pks13 thioesterase: 7.9%; MtTrpRS: 0.2571%; LiHisRS: 24.69%

2 of the entries, repeated:

- COc1ccc(CN(C)[C@@H]2CN(C(=O)c3cnn(C)c3)C[C@H]2O)cc1 | CoaBC: 0.7353%; Pks13 thioesterase: -10.45%; LiHisRS: 7.292%
- CN1CC(c2ccccc2)CC12CCN(C(=O)c1c(Cl)cnn1C)CC2 (centres undefined) | CoaBC: 1.754%; Pks13 thioesterase: -5.597%; MtTrpRS: -2.924%; LiHisRS: 19.05%